# From patent publication US7629471B2, “Transcriptional factor, process for producing the same and use thereof” (NRL Pharma, Inc., priority 2003, dated 2009)
# At least one compound was matched to its structure with a doubt left.
# Experiments:
# [1] = Release of compounds from sprayed feed in acidic organic solvent (Table 3); type: physicochemical
# [2] = Collection experiment: acetone extraction of compounds from feed (Table 2); type: physicochemical; conditions: room temperature, HPLC
# [3] = 5% Acetic acid-containing ethanol, 0 hours
# [4] = 5% Acetic acid-containing ethanol, 1 hour
# [5] = 5% Acetic acid-containing ethanol, 8 hours
# [6] = 5% Acetic acid-containing ethanol, 16 hours
# [7] = 5% Hydrochloric acid-containing methanol, 0 hours
# [8] = 5% Hydrochloric acid-containing methanol, 1 hour
# [9] = 5% Hydrochloric acid-containing methanol, 8 hours
# [10] = 5% Hydrochloric acid-containing methanol, 16 hours
# [11] = Feed prepared by mechanical mixing with drug, acetone extraction 1 hour
# [12] = Feed prepared by mechanical mixing with drug, acetone extraction 6 hours
# [13] = Feed prepared by mechanical mixing with drug, acetone extraction 16 hours
# [14] = Feed sprayed with acetone solution (air-dried), acetone extraction 1 hour
# [15] = Feed sprayed with acetone solution (air-dried), acetone extraction 6 hours
# [16] = Feed sprayed with acetone solution (air-dried), acetone extraction 16 hours
structure (smiles),measurement,setting,value
"COc1c(Cl)c(C)c(C=O)c(O)c1C/C=C(C)/C=C/[C@@]1(C)[C@H](C)CCC(=O)[C@@H]1C [Compound-1, 4-O-methylascochlorin]",Recovery rate,[1]; [3],10.2%
same,Recovery rate,[1]; [4],33.9%
same,Recovery rate,[1]; [5],65.0%
same,Recovery rate,[1]; [6],81.7%
same,Recovery rate,[1]; [7],40.0%
same,Recovery rate,[1]; [8],80.4%
same,Recovery rate,[1]; [9],92.1%
same,Recovery rate,[1]; [10],97.4%
same,Recovery rate,[2]; [11],86%
same,Recovery rate,[2]; [12],90%
same,Recovery rate,[2]; [13],85%
same,Recovery rate,[2]; [14],0%
same,Recovery rate,[2]; [15],0%
same,Recovery rate,[2]; [16],0%
"CC(C=CC1(C)C(C)CCC(=O)C1C)=CCc1c(O)c(C=O)c(C)c(Cl)c1OCC(=O)O (stereo not shown) [Compound-2, 4-O-carboxymethylascochlorin]",Recovery rate,[1]; [3],8.6%
same,Recovery rate,[1]; [4],41.3%
same,Recovery rate,[1]; [5],71.3%
same,Recovery rate,[1]; [6],79.5%
same,Recovery rate,[1]; [7],53.2%
same,Recovery rate,[1]; [8],84.2%
same,Recovery rate,[1]; [9],99.6%
same,Recovery rate,[1]; [10],100.4%
same,Recovery rate,[2]; [11],91%
same,Recovery rate,[2]; [12],90%
same,Recovery rate,[2]; [13],76%
same,Recovery rate,[2]; [14],0%
same,Recovery rate,[2]; [15],0%
same,Recovery rate,[2]; [16],0%
